The values below come from article doi:10.1101/2020.04.19.045989.

Protein sequences, listed by entry. Tags and fused reporters are not part of them.
UniProt Q92786: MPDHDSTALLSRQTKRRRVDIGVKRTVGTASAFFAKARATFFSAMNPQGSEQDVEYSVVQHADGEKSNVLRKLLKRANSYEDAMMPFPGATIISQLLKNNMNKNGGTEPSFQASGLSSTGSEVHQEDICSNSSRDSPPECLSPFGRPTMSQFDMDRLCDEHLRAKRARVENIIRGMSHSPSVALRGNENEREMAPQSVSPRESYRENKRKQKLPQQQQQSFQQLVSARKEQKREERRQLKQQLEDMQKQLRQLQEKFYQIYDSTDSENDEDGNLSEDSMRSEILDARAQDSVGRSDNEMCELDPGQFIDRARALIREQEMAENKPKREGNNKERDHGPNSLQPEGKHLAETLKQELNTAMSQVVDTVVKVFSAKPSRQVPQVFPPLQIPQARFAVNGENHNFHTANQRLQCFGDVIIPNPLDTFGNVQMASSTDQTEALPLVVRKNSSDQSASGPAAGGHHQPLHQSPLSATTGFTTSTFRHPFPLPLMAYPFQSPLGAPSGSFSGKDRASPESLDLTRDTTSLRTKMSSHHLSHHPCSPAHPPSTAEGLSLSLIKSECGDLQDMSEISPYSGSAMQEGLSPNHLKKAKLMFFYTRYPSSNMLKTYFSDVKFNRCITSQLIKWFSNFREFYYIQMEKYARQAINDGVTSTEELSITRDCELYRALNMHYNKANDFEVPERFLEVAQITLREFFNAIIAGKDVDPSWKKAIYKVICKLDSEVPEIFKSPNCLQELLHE
UniProt Q13547: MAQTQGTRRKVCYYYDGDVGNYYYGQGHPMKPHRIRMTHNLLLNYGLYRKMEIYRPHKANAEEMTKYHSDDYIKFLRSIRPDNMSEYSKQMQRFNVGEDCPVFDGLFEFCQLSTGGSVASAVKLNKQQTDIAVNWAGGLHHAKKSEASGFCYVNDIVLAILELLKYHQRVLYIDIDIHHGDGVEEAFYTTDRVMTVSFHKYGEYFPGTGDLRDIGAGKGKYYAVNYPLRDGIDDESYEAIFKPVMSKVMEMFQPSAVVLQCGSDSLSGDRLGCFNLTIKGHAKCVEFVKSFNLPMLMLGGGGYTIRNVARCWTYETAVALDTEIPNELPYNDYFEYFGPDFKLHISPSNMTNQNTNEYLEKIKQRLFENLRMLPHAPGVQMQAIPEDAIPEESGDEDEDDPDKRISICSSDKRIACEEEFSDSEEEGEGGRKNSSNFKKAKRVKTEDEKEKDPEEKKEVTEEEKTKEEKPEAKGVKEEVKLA

In this assay the target is PROX1 transcription factor (human (endogenous in RD)) (UniProt Q92786). The assay is described as follows: co-IP.

These are yes or no findings as the source states them, for the method shown. In cells and extracts the contact can be indirect. Some results given as binding are weak or reduced against the parent protein; the word gives no strength.

Take “HDAC1 (from UniProt Q13547 1-482) (enzyme)”: the binding entry is reported as “binds”.
